Results as given in PubChem BioAssay AID256 (DTP/NCI, 2004).
The list does not hold the whole screen: it gathers tests that were run many times, whatever their T/C, doses with no T/C, and many T/C values between a quarter and a half above the control. Other doses and runs of a compound stand elsewhere. T/C is the treated group as % of the vehicle group. Some doses have a count of surviving animals in place of a T/C: the source holds a T/C of zero for them, seemingly a mark for toxic or unscored doses. Some survivor counts are full or nearly so, which does not show that the dose was tolerated: the source hardly ever lists a survival T/C far under the control, and the zero likely stands for such cases as well. Survivors were counted at the toxicity check, usually on the fifth day, unless a day is given; later deaths do not show. Schedule codes are those of the source, taken here to give the interval after Q, in days (D) or hours (H), and the number of doses after X. Some entries hold several experiments; the values are given in rising order. For survival time, the PubChem record calls one and a half times the control and up active, and a quarter to a half above the control has no call in these data; cut-offs in other NCI protocols can differ. Some T/C values are followed by the survivors on the day toxicity was checked, most often the fifth; where none is given, no animal had died by that day.

System: CD2F1 mice, L1210 leukemia ip, survival T/C
Assay: NCI In Vivo Anticancer Drug Screen. Data for tumor model L1210 Leukemia (intraperitoneal) in CD2F1 (CDF1) mice
Conditions: higher T/C = longer survival
Outline: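 Read-out first: treated-group measurement over vehicle-control measurement, expressed as a ratio. Animals bore a transplanted tumor line and were dosed with compound or vehicle.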

[1] = T/C endpoint: mean survival time, dose: 300.0 mg/kg/injection, schedule: Q01DX001 (ip), vehicle: saline
[2] = T/C endpoint: mean survival time, dose: 400.0 mg/kg/injection, schedule: Q01DX001 (ip), vehicle: saline with Tween-80
[3] = T/C endpoint: mean survival time, dose: 100.0 mg/kg/injection, schedule: Q04DX003 (ip), vehicle: saline with Tween-80
[4] = T/C endpoint: mean survival time, dose: 200.0 mg/kg/injection, schedule: Q04DX003 (ip), vehicle: saline with Tween-80
[5] = T/C endpoint: mean survival time, dose: 400.0 mg/kg/injection, schedule: Q04DX003 (ip), vehicle: saline with Tween-80
[6] = T/C endpoint: mean survival time, dose: 200.0 mg/kg/injection, schedule: Q01DX009 (ip), vehicle: saline
[7] = T/C endpoint: mean survival time, dose: 200.0 mg/kg/injection, schedule: Q04DX003 (ip), vehicle: other
[8] = T/C endpoint: mean survival time, dose: 400.0 mg/kg/injection, schedule: Q04DX003 (ip), vehicle: other

For `Nc1nc2c(ncn2C2CC(O)C(CO)O2)c(=O)n1N` (stereo unspecified), the survivor count [1] was 2 of 6.
With `Cc1cccc(-c2nn[nH]n2)n1` the survivor count (T/C endpoint: mean survival time, dose: 50.0 mg/kg/injection, schedule: Q01DX001 (ip), vehicle: saline with Tween-80) was 3 of 3.
For `COC1CCC([NH-])(C[NH-])C(c2ccc3c(c2)OCO3)O1.[Cl][Pt+2][Cl]` (stereo unspecified), the survivor count (T/C endpoint: median survival time, dose: 280.0 mg/kg/injection, schedule: Q04DX003 (ip), vehicle: saline with Tween-80) was 4 of 4.
With `C#CC1(c2ccccc2)OCCO1` the survivor count (T/C endpoint: mean survival time, dose: 100.0 mg/kg/injection, schedule: Q01DX001 (ip), vehicle: saline with Tween-80) was 3 of 6, the survivor count (T/C endpoint: mean survival time, dose: 200.0 mg/kg/injection, schedule: Q01DX001 (ip), vehicle: saline with Tween-80) was 0 of 6 and the survivor count [2] was 0 of 6.
`C[n+]1cccc(C(=O)c2ccccc2)c1` was tested, and the survivor count (T/C endpoint: mean survival time, dose: 150.0 mg/kg/injection, schedule: Q01DX001 (ip), vehicle: other) was 3 of 6 and the survivor count (T/C endpoint: mean survival time, dose: 300.0 mg/kg/injection, schedule: Q01DX001 (ip), vehicle: other) was 0 of 6.
With `CCCCCC(C[N+](C)(C)C)C(O)/C=C\c1ccccc1` (stereo unspecified) the survivor count [3] was 0 of 6, the survivor count [4] was 0 of 6 and the survivor count [5] was 0 of 6.
For `O=C(O)C(Br)CC(Br)C(=O)O` (stereo unspecified), the survivor count [6] was 1 of 3.
For `Cc1ccc(N/N=C/C(=O)O)cc1`, the survivor count [7] was 6 of 6.
`COC(=O)NC1=C(N2CC2)C(=O)C(NC(=O)OC)=C(N2CC2)C1=O` was tested, and the T/C (T/C endpoint: mean survival time, dose: 0.37 mg/kg/injection, schedule: Q01DX009 (ip), vehicle: saline) was 126 [9 of 10 alive] and 127 % of control, the T/C (T/C endpoint: mean survival time, dose: 0.75 mg/kg/injection, schedule: Q01DX009 (ip), vehicle: saline) was 147 % of control and the survivor count (T/C endpoint: mean survival time, dose: 6.0 mg/kg/injection, schedule: Q01DX009 (ip), vehicle: saline) was 8 of 10 and 9 of 10.
For `CCCCC(=O)OCC(=O)[C@]1(O)Cc2c(O)c3c(c(O)c2[C@@H](OC2CC(NC(=O)C(F)(F)F)C(O)C(C)O2)C1)C(=O)c1c(OC)cccc1C3=O` (stereo partly specified), the T/C (T/C endpoint: mean survival time, dose: 16.0 mg/kg/injection, schedule: Q01DX009 (ip), vehicle: Klucel (hydroxypropylcellulose) (HPC)) was 128 % of control, the T/C (T/C endpoint: mean survival time, dose: 128.0 mg/kg/injection, schedule: Q01DX009 (ip), vehicle: water) was 127 % of control and the survivor count (T/C endpoint: mean survival time, dose: 256.0 mg/kg/injection, schedule: Q01DX009 (ip), vehicle: Klucel (hydroxypropylcellulose) (HPC)) was 5 of 6. The T/C (T/C endpoint: mean survival time, dose: 256.0 mg/kg/injection, schedule: Q01DX009 (ip), vehicle: water) was 142 % of control.
With `C=Cc1cc(OC)c2c(c1)c(=O)oc1c2cc(OC)c2c(O)ccc(C3OC(C(C)O)C(O)C3O)c21` (stereo unspecified) the survivor count (T/C endpoint: median survival time, dose: 200.0 mg/kg/injection, schedule: Q01DX009 (ip), vehicle: Klucel (hydroxypropylcellulose) (HPC)) was 2 of 6.
For `NC1C2C(CC(=O)O)OCC=C3CN4CCC1(C(=O)C(=O)O)C4CC32` (stereo unspecified), the survivor count (T/C endpoint: mean survival time, dose: 5.0 mg/kg/injection, schedule: Q01DX001 (ip), vehicle: saline) was 0 of 6, the survivor count (T/C endpoint: mean survival time, dose: 10.0 mg/kg/injection, schedule: Q01DX001 (ip), vehicle: saline) was 0 of 6 and the survivor count (T/C endpoint: mean survival time, dose: 20.0 mg/kg/injection, schedule: Q01DX001 (ip), vehicle: saline) was 0 of 6. The survivor count (T/C endpoint: mean survival time, dose: 40.0 mg/kg/injection, schedule: Q01DX001 (ip), vehicle: saline) was 0 of 6, the survivor count (T/C endpoint: mean survival time, dose: 75.0 mg/kg/injection, schedule: Q01DX001 (ip), vehicle: saline) was 0 of 6 and the survivor count (T/C endpoint: mean survival time, dose: 80.0 mg/kg/injection, schedule: Q01DX001 (ip), vehicle: saline) was 0 of 6. For the same compound, the survivor count (T/C endpoint: mean survival time, dose: 150.0 mg/kg/injection, schedule: Q01DX001 (ip), vehicle: saline) was 0 of 6 and the survivor count [1] was 0 of 6.
In the case of `O=C(O)CN(CC(=O)O)C1CCCCC1N(CC(=O)O)CC(=O)O.[Cl][Pt+2][Cl]` (stereo unspecified), the survivor count (T/C endpoint: median survival time, dose: 160.0 mg/kg/injection, schedule: Q04DX003 (ip), vehicle: saline) was 0 of 6 and the survivor count (T/C endpoint: median survival time, dose: 320.0 mg/kg/injection, schedule: Q04DX003 (ip), vehicle: saline) was 0 of 6.
With `NCCCCOc1ccc([N+](=O)[O-])cc1Cl` the survivor count [1] was 3 of 6.
`[Cu+2].[NH-]CC(=O)O.[NH-]CC(=O)O` was tested, and the survivor count (T/C endpoint: mean survival time, dose: 20.0 mg/kg/injection, schedule: Q01DX009 (ip), vehicle: saline) was 0 of 6.
`CCCCCCCCCCCCCCCCCCOCC(COP(=O)([O-])OCC[N+](C)(C)C)OC` (stereo unspecified) was tested, and the survivor count (T/C endpoint: median survival time, dose: 100.0 mg/kg/injection, schedule: Q01DX009 (ip), vehicle: suspension in saline) was 0 of 6.
With `CCOC(=O)CS(=O)c1c([N+](=O)[O-])ncn1C` (stereo unspecified) the survivor count [3] was 2 of 6, the survivor count [4] was 0 of 6 and the survivor count [5] was 0 of 6.
With `Cn1c(CS)nc2ccccc21` the survivor count (T/C endpoint: mean survival time, dose: 400.0 mg/kg/injection, schedule: Q04DX002 (ip), vehicle: saline with Tween-80) was 0 of 3.
For `CCOC(=O)C1=C(C#N)C2(CCC(OCc3ccccc3)CC2)C(=O)O1` (stereo unspecified), the survivor count (T/C endpoint: mean survival time, dose: 400.0 mg/kg/injection, schedule: Q01DX009 (ip), vehicle: saline) was 2 of 6.
With `Nc1ccc(S(=O)(=O)S(=O)(=O)c2ccc(N)cc2)cc1` the survivor count [2] was 6 of 6.
With `CC(=O)[O][Hg][c]1c(C)c(C)[c]([Hg][O]C(C)=O)c(C)c1C` the survivor count (T/C endpoint: mean survival time, dose: 100.0 mg/kg/injection, schedule: Q04DX002 (ip), vehicle: saline with Tween-80) was 0 of 3.
`CC1=C(C)CS(=O)(=O)C1` was tested, and the survivor count [4] was 4 of 6 and the survivor count [5] was 0 of 6.
For `COC1(c2ccccc2)c2ccccc2C(OC)(c2ccccc2)c2cc(Cl)ccc21` (stereo unspecified), the survivor count (T/C endpoint: mean survival time, dose: 400.0 mg/kg/injection, schedule: Q01DX001 (ip), vehicle: Klucel (hydroxypropylcellulose) (HPC)) was 3 of 3.
With `O=C(CCN1CCCCC1)c1ccc(C(F)(F)F)cc1` the survivor count (T/C endpoint: mean survival time, dose: 12.5 mg/kg/injection, schedule: Q01DX009 (ip), vehicle: water) was 6 of 6, the survivor count (T/C endpoint: mean survival time, dose: 25.0 mg/kg/injection, schedule: Q01DX009 (ip), vehicle: saline) was 0 of 6 and the survivor count (T/C endpoint: mean survival time, dose: 25.0 mg/kg/injection, schedule: Q01DX009 (ip), vehicle: water) was 0 of 6. The survivor count (T/C endpoint: mean survival time, dose: 50.0 mg/kg/injection, schedule: Q01DX009 (ip), vehicle: saline) was 0 of 6, the survivor count (T/C endpoint: mean survival time, dose: 100.0 mg/kg/injection, schedule: Q01DX009 (ip), vehicle: saline) was 0 of 6 and the survivor count [6] was 0 of 6.
With `CC(=O)O[C@@H]1C[C@H](C)CC[C@H]1C(C)C` the survivor count [5] was 6 of 6.
For `O=C(C=C(C(F)(F)F)C(F)(F)F)c1ccccc1Cl`, the survivor count (T/C endpoint: mean survival time, dose: 50.0 mg/kg/injection, schedule: Q01DX009 (ip), vehicle: saline with Tween-80) was 0 of 6.
For `NC(=O)c1[nH]cnc1/N=N/N(CCF)CCF`, the T/C (T/C endpoint: mean survival time, dose: 13.0 mg/kg/injection, schedule: Q01DX001 (ip), vehicle: other) was 137 % of control and the T/C (T/C endpoint: mean survival time, dose: 20.0 mg/kg/injection, schedule: Q01DX001 (ip), vehicle: other) was 140 % of control.
With `Cc1ccc(C(=O)CC#N)c(C)c1` the survivor count (T/C endpoint: mean survival time, dose: 200.0 mg/kg/injection, schedule: Q01DX009 (ip), vehicle: saline with Tween-80) was 5 of 6.
For `COC12[C@@H](COC(N)=O)C3=C(C(=O)C(C)=C(NCCSSCCNC4=C(C)C(=O)C5=C(C4=O)C(COC(N)=O)[C@]4(OC)C6[C@@H](CN54)N6C)C3=O)N1C[C@@H]1[C@H]2N1C` (stereo partly specified), the T/C (T/C endpoint: mean survival time, dose: 12.0 mg/kg/injection, schedule: Q01DX001 (ip), vehicle: distilled water + Tween-80) was 127 % of control, the T/C (T/C endpoint: mean survival time, dose: 24.0 mg/kg/injection, schedule: Q01DX001 (ip), vehicle: distilled water + Tween-80) was 129 % of control and the T/C (T/C endpoint: mean survival time, dose: 48.0 mg/kg/injection, schedule: Q01DX001 (ip), vehicle: distilled water + Tween-80) was 136 % of control [5 of 6 alive].
For `CCOC1(C)OC2C(CO)OC(n3ccc4c(N)ncnc43)C2O1` (stereo unspecified), the survivor count (T/C endpoint: mean survival time, dose: 200.0 mg/kg/injection, schedule: Q01DX001 (ip), vehicle: saline) was 1 of 6 and the survivor count (T/C endpoint: mean survival time, dose: 400.0 mg/kg/injection, schedule: Q01DX001 (ip), vehicle: saline) was 0 of 6.
For `CCOC(=O)CCl`, the survivor count [8] was 0 of 6.
`O=C(C=C(C(F)(F)F)C(F)(F)F)c1ccc(Br)cc1` was tested, and the survivor count (T/C endpoint: mean survival time, dose: 50.0 mg/kg/injection, schedule: Q01DX009 (ip), vehicle: other) was 2 of 6, the survivor count [7] was 2 of 6 and the survivor count [8] was 2 of 6.
For `CSc1nc(=O)n(C2OC(CO)C(O)C2O)nc1SCc1ccccc1` (stereo unspecified), the survivor count (T/C endpoint: mean survival time, dose: 100.0 mg/kg/injection, schedule: Q01DX005 (ip), vehicle: distilled water + Tween-80) was 0 of 6 and the survivor count (T/C endpoint: mean survival time, dose: 200.0 mg/kg/injection, schedule: Q01DX005 (ip), vehicle: distilled water + Tween-80) was 0 of 6.
